PubChem BioAssay AID504784 – Drosophila RNAi Screening Center, 2011
In all, the deposit lists about 17,000 reagents; below is a random part of those with a known target gene and a result. 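Each column is one replicate's B-score; the combined score over replicates was not deposited, so single values may mislead.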

Purpose: 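Genome-wide knock-down for genes giving too much or too little stored lipid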 (primary screen)
Cells: Drosophila Kc167 embryonic cells
Reagents: long dsRNA against Drosophila genes, about 250 ng dsRNA per well
Duration: 4 days
Treatment: cells fed 400 µM oleic acid bound to BSA
Detection: 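Microscope images give a droplet-to-nucleus area ratio, taken as log and converted to a screen-wide B-score; higher values mean greater lipid storage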
Direction: droplet/nuclear area B-score: higher = more stored lipid (overstorage)

target,DRSC id,"droplet/nuclear area B-score, replicate 1","droplet/nuclear area B-score, replicate 2","droplet/nuclear area B-score, replicate 3"
CanA-14F (GeneID 8674098),DRSC20211,-0.7,-1.67,
CanA-14F (GeneID 8674098),DRSC23296,-1.35,-0.0741,
CG15822 (GeneID 38273),DRSC08482,-1.1,0.129,
CG15822 (GeneID 38273),DRSC08483,-0.802,2.13,
wap (GeneID 33131),DRSC20626,-0.0786,-0.822,
NaPi-III (GeneID 39255),DRSC10893,0.0425,-1.08,
NaPi-III (GeneID 39255),DRSC10894,-1.04,-0.0212,
NaPi-III (GeneID 39255),DRSC22953,0.266,-0.403,
AGO2 (GeneID 39683),DRSC09999,0.385,-0.128,
AGO2 (GeneID 39683),DRSC10847,-0.082,0.694,1.06
Pld3 (GeneID 35384),DRSC03167,-0.393,1.73,
CG17258 (GeneID 33517),DRSC00495,-1.28,0.124,
CG17258 (GeneID 33517),DRSC22709,-0.288,0.398,
galla-1 (GeneID 246485),DRSC05987,-1.04,1.72,
CG15296 (GeneID 31986),DRSC17983,0.356,-0.859,-0.868
CG14817 (GeneID 31145),DRSC18547,-0.0378,1.9,
Aldh-III (GeneID 45398),DRSC06047,-0.0518,1.34,
elg1 (GeneID 39770),DRSC10229,1.85,-0.0513,1.27
mora (GeneID 42874),DRSC16594,0.0183,-2.43,
CG13700 (GeneID 40013),DRSC10049,-1.43,-0.656,
CG13250 (GeneID 40284),DRSC11698,-3.04,-0.475,
CG7049 (GeneID 38022),DRSC08587,0.206,0.749,
CG7778 (GeneID 34147),DRSC03067,0.654,0.819,
Snx6 (GeneID 34126),DRSC03081,-2.35,1.28,
Vm32E (GeneID 34558),DRSC03474,-1.78,-0.00384,
Glyp (GeneID 33386),DRSC00752,0.0227,1.56,
AP-1gamma (GeneID 31842),DRSC18433,0.438,0.206,-0.311
CG5805 (GeneID 42950),DRSC15878,0.81,-0.549,
CG31224 (GeneID 42237),DRSC15272,4.35,,
CG31224 (GeneID 42237),DRSC16290,1.76,-1.36,
Vha100-1 (GeneID 43442),DRSC14148,0.165,2.02,
Panx (GeneID 37434),DRSC04563,,-1.58,
m-cup (GeneID 42076),DRSC14430,-0.673,-0.058,
CG15393 (retired record) (GeneID 33433),DRSC00407,-0.4,-0.473,

4 successive entries already listed, for reference:
target,DRSC id,"droplet/nuclear area B-score, replicate 1","droplet/nuclear area B-score, replicate 2","droplet/nuclear area B-score, replicate 3"
Vha100-1 (GeneID 43442),DRSC14148,0.165,2.02,
Panx (GeneID 37434),DRSC04563,,-1.58,
m-cup (GeneID 42076),DRSC14430,-0.673,-0.058,
CG15393 (retired record) (GeneID 33433),DRSC00407,-0.4,-0.473,
